Test results published in PubChem BioAssay AID1508600 (Functional Genomics Laboratory (NCATS/FGL), 2020).
Out of some 53,000 sequences screened, about 3,700 (7%) were called active.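 The calls were made as follows: active = gene knockdowns whose robust z-score for IL-1 alpha signal is at least 2 or at most -2, so actives lie on both sides; inactive = the rest.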 This is one part of the list.

Assay: Components of the Cytosolic LPS Sensing Pathway: Gene Identification via Genome-wide siRNA Screen;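 also: robust z of the log signal after scaling to non-targeting control siRNA wells of the plate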
Details: RAW264.7 macrophages, IL-1a HTRF, actives lie on both sides, screened at 100 nM (by protocol), cells primed 5 h with Pam3CSK4 first
How it was run: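 Supernatant IL-1a by HTRF from RAW264.7 cells primed with Pam3CSK4 (5 hours) and transfected with LipidA (24 hour) after 48h siRNA knockdown at 100 nM; cell viability checked with CellTiter-Glo.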

Sequence	z-score
GGAAAUUUGGUGAGCAUUUTT against Synj2bp	inactive: -1.09
GGCUGAGCUGGAAAUCCAGTT against Aprt	inactive: -0.859
GCAUGUACCCUCUUUGUAGTT against Gjb6	inactive: -0.954
GGUGCUUAAUCAACAGAAATT against Scn3a	inactive: -1.13
GGAAAAGAGCAACUACCAGTT against Brf1	inactive: -0.418
CGAAUUGGAGAGGAGCUUCTT against Otp	inactive: 0.835
GGUCUCCAAAGCAGAUACCTT against Svil	inactive: -0.197
GCCCAAACUCAAGCAAGUCTT against Trpm3	active: 2.37
GCACGGAGCCAAAUAAUCUTT against Rpl28	active: 2.07
GGAGGUCCUAGAGUACAAUTT against Fdps	inactive: 0.117
GGCUAUCCAAAUUUGAGUCTT against Fer	inactive: 0.0324
GGAGGGACAUGGAGAUUACTT against Ptpn18	active: 3.15
GGUUCAGAACAUUAACUCCTT against Rab18	inactive: 0.432
GCUCCUAGGAACUUGGUUATT against Pacsin2	inactive: 0.687
GAUGCAGCCGUAGGAAUGGTT against Defa-rs10	inactive: 0.386
GAUGUAGAGUUUGGAAUGATT against Psmb10	inactive: -0.181
GGAAUUCAAUCAGUUUGCUTT against Dysf	inactive: 1.06
GGGUGCAUCCCAUUCUCUUTT against Pld1	inactive: -0.0755
GGAUGGUCGAGUGUUUAUUTT against Sec13	inactive: -0.536
GGAAGGUAAAUGUCUGCUCTT against Selenok	inactive: 0.289
GGCCCUAGAUUUUUAUGGGTT against Pten	inactive: -0.246
CGACUUAAAUUGCUUGUGATT against Gas1	inactive: -0.374
GGAGGUUCGAAGCUCGAUCTT against Trim28	inactive: 0.924

Sequence	z-score
GCAGGAAGCCCAGUAAAGUTT against Figla	inactive: 0.44
GCUAGUGCUUUUAACUCUATT against Csprs	inactive: 1.72
CCCAACAAGAGUAUCUAUGTT against Foxh1	inactive: -0.125
GGUUGGUCUAGCAAUCUGUTT against Nit1	inactive: 0.834
GCAGCUAAGAAGACCACUATT against Zfp185	active: 2.15
CGGUUUUUUAAUCUACCUATT against Ppp1r7	inactive: 0.801
GGAGAUCAAAGAUAUCCUCTT against Rps16	inactive: -0.133
GGAGAGCUAAAUAAACAAATT against Kitl	inactive: 0.549
GCCAUGUCAAUCAAUCACUTT against Nucks1	active: -2.57
GGCUACUUCUGUACUAGGATT against Gclc	inactive: -1.05
GGAGAGAAAGGAAAUGUUUTT against Sepsecs	inactive: 0.203
CCACGAAUUACCUUAAAGUTT against Jade3	inactive: 0.187
GGUCGUACUAUACCAAAGATT against Scgb2b2	inactive: 0.487
GGCUUUAAGAUCACACAAATT against Snrpa	active: 2.09
GCUACCUCUCGUAGUAAAATT against Sgk2	inactive: -0.911
GAUACAGACCUUGCUCUUCTT against Olfr714	inactive: -0.421
GGAACAAGAACAAGUUGAGTT against Spa17	inactive: 0.389
CCGAGUCUUGAACUAGGCATT against Six2	active: -2.01
CGCAGUAGCGAAGAAUUACTT against Sel1l3	active: 2.46
GGAAGAGCGAGAGACCUUGTT against Hnf1a	inactive: -0.295
CCGGAUUGAAGAGUUGUAUTT against Tefm	inactive: -0.827
GGUUAAACUACAACAGUUGTT against Tmco5	inactive: 1.04
GCCAAUCGGCAUCUUCCUUTT against Bcar1	inactive: -1.71

Looked up above.
Value for GGAAGGUAAAUGUCUGCUCTT against Selenok under z-score: inactive: 0.289
Value for GGUCUCCAAAGCAGAUACCTT against Svil under z-score: inactive: -0.197

The list continues:

Sequence	z-score
GGUGAUUGGGAAUUGAAAATT against F3	inactive: 0.341
GCCAGUCAUUCAGUAAAGUTT against Mysm1	inactive: -1.15
GGCUACAUGUGAUUUCUCUTT against Ttc7	inactive: -0.272
GCUCCUCGGUCUUUCAUGUTT against Nemp2	inactive: -1.82
GGCCCUGAACUGGUUUUGUTT against Osbpl10	inactive: -0.119
GGAAGCAGUGGAGAAACCATT against Rfc4	inactive: -1.52
GGCAGGUGUAAAAUGUAAATT against Hpgd	inactive: 0.349
GGAAGUCAAGAUCUCACCUTT against Lrrc25	inactive: -0.864
GGACCAUAAGCGACCCAAATT against Lmx1a	inactive: -1.27
GGAAGAUGGCAAUAAUAACTT against Borcs7	active: -2.26
GGCAGGAAUGACUCCUUUUTT against Rtf2	inactive: 1.27
GCACUAGCAGACUAGGUGATT against Zbtb26	active: -2.07
GGGAGAUGAUUAGUUCAUUTT against Mad1l1	inactive: 0.654
GGUUUAGAACUGGUAGAGCTT against Asgr1	inactive: 0.72
GGAAGUCAAGUACUGUAGCTT against Usp16	inactive: 0.0965
GGCUCUUUUCUCUUUGCUGTT against Gpr157	inactive: 0.932
GGCAUAACUGAUCAUACGCTT against Foxp3	inactive: -0.599
GGGUGUCUAUGAUUCUACATT against Add1	inactive: 0.292
GGAGAUUCUCCAUAACCUGTT against Rnf135	active: 2.29
CCCAAGAGUGAGAUGACCCTT against Snrpd2	inactive: -1.46
GCUUCGUGAGCAAAUCCUATT against Ccdc126	inactive: 0.852
GGUAAUGAAAAGCAUUGAATT against Epha1	inactive: 1.38
CCUUCAAGUACUUUCUCCGTT against Dcakd	inactive: 1.22
